Results as given in the supplement of paper PMC8728848.
The list shows a part of the results.

Assays:
Experiment in all cases: glycan array binding signal (z-score within array); higher = stronger binding
Details in all cases: glycan notation: IUPAC condensed, linker removed
[1] = target: Gal(b1-4)GlcNAc(b1-3)Gal(b1-4)Glc
In short: (§1)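 Glycan array data were curated from 3228 arrays in the Consortium for Functional Glycomics database and kept only where the protein sequence was available. Glycan names were converted to IUPAC-condensed notation, and columns mapping to the same glycan were averaged. The binding signal is a within-array Z-score, averaged across arrays of the same protein sequence at different concentrations or buffers and across linkers. Negative Z-scores can be read as non-binding.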

[2] = target: Gal(b1-4)GlcNAc(b1-3)Gal(b1-4)GlcNAc
In short: as §1

[3] = target: Gal(b1-4)GlcNAc(b1-3)Gal(b1-4)GlcNAc(b1-2)Man(a1-3)[Gal(b1-4)GlcNAc(b1-3)Gal(b1-4)GlcNAc(b1-2)Man(a1-6)]Man(b1-4)GlcNAc(b1-4)GlcNAc
In short: as §1

[4] = target: Gal(b1-4)GlcNAc(b1-3)Gal(b1-4)GlcNAc(b1-2)Man(a1-3)[Gal(b1-4)GlcNAc(b1-3)Gal(b1-4)GlcNAc(b1-2)Man(a1-6)]Man(b1-4)GlcNAc(b1-4)[Fuc(a1-6)]GlcNAc
In short: as §1

[5] = target: Gal(b1-4)GlcNAc(b1-3)Gal(b1-4)GlcNAc(b1-2)[Gal(b1-4)GlcNAc(b1-3)Gal(b1-4)GlcNAc(b1-6)]Man(a1-6)[Gal(b1-4)GlcNAc(b1-3)Gal(b1-4)GlcNAc(b1-2)Man(a1-3)]Man(b1-4)GlcNAc(b1-4)GlcNAc
In short: as §1

[6] = target: Gal(b1-4)GlcNAc(b1-3)Gal(b1-4)GlcNAc(b1-2)[Gal(b1-4)GlcNAc(b1-3)Gal(b1-4)GlcNAc(b1-6)]Man(a1-6)[Gal(b1-4)GlcNAc(b1-3)Gal(b1-4)GlcNAc(b1-2)Man(a1-3)]Man(b1-4)GlcNAc(b1-4)[Fuc(a1-6)]GlcNAc
In short: as §1

[7] = target: Gal(b1-4)GlcNAc(b1-3)Gal(b1-4)GlcNAc(b1-3)Gal(b1-4)GlcNAc
In short: as §1

[8] = target: Gal(b1-4)GlcNAc(b1-3)Gal(b1-4)GlcNAc(b1-3)Gal(b1-4)GlcNAc(b1-2)Man(a1-3)[Gal(b1-4)GlcNAc(b1-3)Gal(b1-4)GlcNAc(b1-3)Gal(b1-4)GlcNAc(b1-2)Man(a1-6)]Man(b1-4)GlcNAc(b1-4)GlcNAc
In short: as §1

[9] = target: Gal(b1-4)GlcNAc(b1-3)Gal(b1-4)GlcNAc(b1-3)Gal(b1-4)GlcNAc(b1-2)Man(a1-3)[Gal(b1-4)GlcNAc(b1-3)Gal(b1-4)GlcNAc(b1-3)Gal(b1-4)GlcNAc(b1-2)Man(a1-6)]Man(b1-4)GlcNAc(b1-4)[Fuc(a1-6)]GlcNAc
In short: as §1

[10] = target: Gal(b1-4)GlcNAc(b1-3)Gal(b1-4)GlcNAc(b1-3)Gal(b1-4)GlcNAc(b1-2)[Gal(b1-4)GlcNAc(b1-3)Gal(b1-4)GlcNAc(b1-3)Gal(b1-4)GlcNAc(b1-6)]Man(a1-6)[Gal(b1-4)GlcNAc(b1-3)Gal(b1-4)GlcNAc(b1-3)Gal(b1-4)GlcNAc(b1-2)Man(a1-3)]Man(b1-4)GlcNAc(b1-4)[Fuc(a1-6)]GlcNAc
In short: as §1

[11] = target: Gal(b1-4)GlcNAc(b1-3)Gal(b1-4)GlcNAc(b1-3)Gal(b1-4)GlcNAc(b1-3)Gal(b1-4)GlcNAc(b1-2)Man(a1-3)[Gal(b1-4)GlcNAc(b1-3)Gal(b1-4)GlcNAc(b1-3)Gal(b1-4)GlcNAc(b1-3)Gal(b1-4)GlcNAc(b1-2)Man(a1-6)]Man(b1-4)GlcNAc(b1-4)GlcNAc
In short: as §1

[12] = target: Gal(b1-4)GlcNAc(b1-3)Gal(b1-4)GlcNAc(b1-3)Gal(b1-4)GlcNAc(b1-3)Gal(b1-4)GlcNAc(b1-2)Man(a1-3)[Gal(b1-4)GlcNAc(b1-3)Gal(b1-4)GlcNAc(b1-3)Gal(b1-4)GlcNAc(b1-3)Gal(b1-4)GlcNAc(b1-2)Man(a1-6)]Man(b1-4)GlcNAc(b1-4)[Fuc(a1-6)]GlcNAc
In short: as §1

[13] = target: Gal(b1-4)GlcNAc(b1-3)Gal(b1-4)GlcNAc(b1-3)Gal(b1-4)GlcNAc(b1-3)Gal(b1-4)GlcNAc(b1-2)[Gal(b1-4)GlcNAc(b1-3)Gal(b1-4)GlcNAc(b1-3)Gal(b1-4)GlcNAc(b1-3)Gal(b1-4)GlcNAc(b1-6)]Man(a1-6)[Gal(b1-4)GlcNAc(b1-3)Gal(b1-4)GlcNAc(b1-3)Gal(b1-4)GlcNAc(b1-3)Gal(b1-4)GlcNAc(b1-2)Man(a1-3)]Man(b1-4)GlcNAc(b1-4)[Fuc(a1-6)]GlcNAc
In short: as §1

[14] = target: Gal(b1-4)GlcNAc(b1-3)Gal(b1-4)GlcNAc(b1-3)Gal(b1-4)GlcNAc(b1-3)Gal(b1-4)GlcNAc(b1-3)Gal(b1-4)GlcNAc(b1-2)Man(a1-3)[Gal(b1-4)GlcNAc(b1-3)Gal(b1-4)GlcNAc(b1-3)Gal(b1-4)GlcNAc(b1-3)Gal(b1-4)GlcNAc(b1-3)Gal(b1-4)GlcNAc(b1-2)Man(a1-6)]Man(b1-4)GlcNAc(b1-4)GlcNAc
In short: as §1

[15] = target: Gal(b1-4)GlcNAc(b1-3)Gal(b1-4)GlcNAc(b1-3)Gal(b1-4)GlcNAc(b1-3)Gal(b1-4)GlcNAc(b1-3)Gal(b1-4)GlcNAc(b1-2)Man(a1-3)[Gal(b1-4)GlcNAc(b1-3)Gal(b1-4)GlcNAc(b1-3)Gal(b1-4)GlcNAc(b1-3)Gal(b1-4)GlcNAc(b1-3)Gal(b1-4)GlcNAc(b1-2)Man(a1-6)]Man(b1-4)GlcNAc(b1-4)[Fuc(a1-6)]GlcNAc
In short: as §1

[16] = target: Gal(b1-4)GlcNAc(b1-3)Gal(b1-4)GlcNAc(b1-3)Gal(b1-4)GlcNAc(b1-3)Gal(b1-4)GlcNAc(b1-3)Gal(b1-4)GlcNAc(b1-2)[Gal(b1-4)GlcNAc(b1-3)Gal(b1-4)GlcNAc(b1-3)Gal(b1-4)GlcNAc(b1-3)Gal(b1-4)GlcNAc(b1-3)Gal(b1-4)GlcNAc(b1-6)]Man(a1-6)[Gal(b1-4)GlcNAc(b1-3)Gal(b1-4)GlcNAc(b1-3)Gal(b1-4)GlcNAc(b1-3)Gal(b1-4)GlcNAc(b1-3)Gal(b1-4)GlcNAc(b1-2)Man(a1-3)]Man(b1-4)GlcNAc(b1-4)[Fuc(a1-6)]GlcNAc
In short: as §1

[17] = target: Gal(b1-4)GlcNAc(b1-3)Gal(b1-4)GlcNAc(b1-3)Gal(b1-4)GlcNAc(b1-3)Gal(b1-4)GlcNAc(b1-3)Gal(b1-4)GlcNAc(b1-3)Gal(b1-4)GlcNAc(b1-2)Man(a1-3)[Gal(b1-4)GlcNAc(b1-3)Gal(b1-4)GlcNAc(b1-3)Gal(b1-4)GlcNAc(b1-3)Gal(b1-4)GlcNAc(b1-3)Gal(b1-4)GlcNAc(b1-3)Gal(b1-4)GlcNAc(b1-2)Man(a1-6)]Man(b1-4)GlcNAc(b1-4)GlcNAc
In short: as §1

[18] = target: Gal(b1-4)GlcNAc(b1-3)Gal(b1-4)GlcNAc(b1-3)GalNAc
In short: as §1

[19] = target: Gal(b1-4)GlcNAc(b1-3)Gal(b1-4)GlcNAc(b1-3)[Gal(b1-4)GlcNAc(b1-3)Gal(b1-4)GlcNAc(b1-6)]GalNAc
In short: as §1

B1: truncCC1G-10077 (Coprinopsis cinerea) (protein)
chain: MHHHHHHHHPLPSPGPGWVLIQNGGTGKFLCSTPSGDIGTADGPETVYDYSVQWRFIQREYTGVYHVVNRATGAYLRQIGTSMPSIGLAEENDDELKDWWMLETYDNSEIGLASIISRWTGNVLDHYGGVSVQALDNNTENSYRSWAIIPARDWLTSFSLVNGQGGLCLAAQYAREETRLSTTANVNDFHAQWVFRKPSGSSGYTIQNKYNNHYVGGTSARWELVVCCNKYFGIRNTSTQKYLAIEDGQVTFQDQDMTDRKQCWELCSGRATDTSGNDYDLIYMDDDLLEVMIPWVGDKQGDLKHYIEKRATKKPPKDKGGWQLPAAGLIKKPKFNDIRQLLQELIEQWEWDVVNEEREQIQTLVSIDEAEARRLLGRRPHPDIVAAYQRSRSSTLFRIDRQGYFNIAGDRYVNIQGQYGDDSYFHIALPVGVRFGREQIRRFLRDSLDRSTSVTITPTTCKPPSGGPDYNRDPDSDGDNSWIKWTIAVVGTSAIKHSEL
[1]
  glycan array binding signal (z-score): -1.04
[2]
  glycan array binding signal (z-score): -1.09
[3]
  glycan array binding signal (z-score): 2.16
[4]
  glycan array binding signal (z-score): 1.7
[5]
  glycan array binding signal (z-score): 3.74
[6]
  glycan array binding signal (z-score): 0.923
[7]
  glycan array binding signal (z-score): -0.532
[8]
  glycan array binding signal (z-score): 2.49
[9]
  glycan array binding signal (z-score): 0.712
[10]
  glycan array binding signal (z-score): 1.26
[11]
  glycan array binding signal (z-score): 1.63
[12]
  glycan array binding signal (z-score): 0.374
[13]
  glycan array binding signal (z-score): 0.85
[14]
  glycan array binding signal (z-score): -0.417
[15]
  glycan array binding signal (z-score): 0.033
[16]
  glycan array binding signal (z-score): 1.26
[17]
  glycan array binding signal (z-score): -0.275
[18]
  glycan array binding signal (z-score): -0.305
[19]
  glycan array binding signal (z-score): 0.535
